Laboratory results: publication PMC10553006
These are yes or no findings as the source states them, for the method shown. In cells and extracts the contact can be indirect. Some entries that bind do so weakly or less than the wild type. For some assays here: Tags and fused reporters may be left off the sequences shown.

Sequences of proteins named here, by UniProt entry; tags and fusion partners are left off.
UniProt P45974: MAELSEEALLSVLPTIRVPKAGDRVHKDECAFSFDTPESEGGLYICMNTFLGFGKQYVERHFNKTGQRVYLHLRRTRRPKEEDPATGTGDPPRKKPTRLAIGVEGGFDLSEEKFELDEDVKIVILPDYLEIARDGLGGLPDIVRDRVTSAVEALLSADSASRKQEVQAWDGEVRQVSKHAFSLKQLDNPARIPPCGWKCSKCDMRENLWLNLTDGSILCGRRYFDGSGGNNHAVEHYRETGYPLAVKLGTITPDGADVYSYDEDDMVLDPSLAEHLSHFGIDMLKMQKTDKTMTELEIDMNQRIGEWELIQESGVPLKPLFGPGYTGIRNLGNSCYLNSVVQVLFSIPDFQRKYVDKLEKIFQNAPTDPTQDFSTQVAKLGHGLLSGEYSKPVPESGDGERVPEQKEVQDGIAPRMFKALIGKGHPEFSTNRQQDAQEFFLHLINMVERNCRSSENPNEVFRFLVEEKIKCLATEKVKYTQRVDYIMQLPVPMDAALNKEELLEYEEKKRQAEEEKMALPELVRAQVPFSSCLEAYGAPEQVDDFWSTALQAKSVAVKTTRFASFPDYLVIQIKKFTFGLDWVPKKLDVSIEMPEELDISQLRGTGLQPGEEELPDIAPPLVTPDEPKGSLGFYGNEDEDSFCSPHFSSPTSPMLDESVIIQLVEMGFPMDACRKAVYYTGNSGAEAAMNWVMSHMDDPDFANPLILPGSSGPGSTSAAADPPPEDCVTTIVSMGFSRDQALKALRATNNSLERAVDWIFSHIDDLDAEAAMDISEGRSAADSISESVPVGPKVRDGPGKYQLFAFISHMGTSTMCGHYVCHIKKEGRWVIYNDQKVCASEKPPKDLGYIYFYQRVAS

Columns and labels:
[1] = molecular target: T1, Flag-TXNIP (thioredoxin-interacting protein) (UniProt Q9H3M7); experiment: co-IP; Huh7 and HepG2 cells cotransfected with Flag-TXNIP and HA-USP5 for 48 hours; lysates incubated with anti-Flag (M2) or anti-HA beads at 4°C overnight, washed five times, western blotting
T1 sequence: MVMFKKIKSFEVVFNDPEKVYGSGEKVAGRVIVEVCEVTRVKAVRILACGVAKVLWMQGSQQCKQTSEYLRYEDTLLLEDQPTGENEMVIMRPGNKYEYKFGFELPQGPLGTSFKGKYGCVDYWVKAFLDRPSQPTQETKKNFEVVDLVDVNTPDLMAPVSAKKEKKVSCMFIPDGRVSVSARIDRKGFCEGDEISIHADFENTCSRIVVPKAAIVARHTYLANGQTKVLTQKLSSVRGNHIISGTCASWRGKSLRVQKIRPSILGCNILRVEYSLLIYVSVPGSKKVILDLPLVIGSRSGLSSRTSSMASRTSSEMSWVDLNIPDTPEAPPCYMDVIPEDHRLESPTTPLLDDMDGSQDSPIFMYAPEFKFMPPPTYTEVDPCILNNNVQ

[2] = molecular target: T2, TXNIP (thioredoxin-interacting protein), endogenous (human (endogenous in Huh7 and HepG2)) (UniProt Q9H3M7); experiment: co-IP; endogenous proteins; lysates of untransfected Huh7 and HepG2 cells incubated with anti-TXNIP or anti-USP5 antibody at 4°C overnight, western blotting
T2 sequence: T1 sequence

HA-USP5 (ubiquitin-specific protease 5) (from UniProt P45974 1-858) (enzyme)
binding [1]: binds

USP5 (ubiquitin-specific protease 5), endogenous (from UniProt P45974 1-858) (enzyme)
binding [2]: binds
